{
  "sequences": {"note": "The chains behind the UniProt entries cited, without tags or fusion partners. Residues count along the entry.", "UniProt Q9Y5Y9, 660-890 limits assumed": "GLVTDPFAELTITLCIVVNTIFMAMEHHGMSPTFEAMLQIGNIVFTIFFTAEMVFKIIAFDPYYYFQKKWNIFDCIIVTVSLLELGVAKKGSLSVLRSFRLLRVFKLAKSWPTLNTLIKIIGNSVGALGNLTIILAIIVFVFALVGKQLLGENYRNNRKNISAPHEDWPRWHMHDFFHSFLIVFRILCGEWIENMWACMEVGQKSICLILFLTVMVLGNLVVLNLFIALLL", "UniProt Q9Y5Y9, 1148-1722 limits assumed": "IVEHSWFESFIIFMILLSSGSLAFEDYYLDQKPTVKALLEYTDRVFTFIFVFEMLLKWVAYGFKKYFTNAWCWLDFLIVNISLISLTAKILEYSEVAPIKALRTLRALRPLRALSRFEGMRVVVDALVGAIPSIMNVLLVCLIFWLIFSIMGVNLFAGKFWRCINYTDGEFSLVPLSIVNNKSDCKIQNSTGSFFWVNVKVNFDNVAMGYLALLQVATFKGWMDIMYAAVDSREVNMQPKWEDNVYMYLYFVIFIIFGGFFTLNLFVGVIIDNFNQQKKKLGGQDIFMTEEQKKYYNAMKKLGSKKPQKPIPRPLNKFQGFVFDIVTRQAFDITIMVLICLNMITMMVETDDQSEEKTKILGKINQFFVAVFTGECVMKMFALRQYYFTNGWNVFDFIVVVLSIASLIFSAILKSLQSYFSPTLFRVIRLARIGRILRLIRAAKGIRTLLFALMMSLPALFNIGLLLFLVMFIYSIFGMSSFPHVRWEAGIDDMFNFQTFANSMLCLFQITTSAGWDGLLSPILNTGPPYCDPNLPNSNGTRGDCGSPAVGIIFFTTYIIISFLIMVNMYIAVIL", "UniProt Q9Y5Y9, 126-399 limits assumed": "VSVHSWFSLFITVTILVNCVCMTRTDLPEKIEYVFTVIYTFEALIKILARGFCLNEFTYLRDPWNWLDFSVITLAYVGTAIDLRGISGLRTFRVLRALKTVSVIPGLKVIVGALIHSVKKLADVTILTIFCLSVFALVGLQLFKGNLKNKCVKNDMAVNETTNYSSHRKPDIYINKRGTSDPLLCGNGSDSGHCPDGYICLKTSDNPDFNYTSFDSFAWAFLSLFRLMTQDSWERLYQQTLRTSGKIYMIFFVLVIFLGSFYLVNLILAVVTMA"},
  "source": "patent US20250213555A1",
  "about": "“SUBSTITUTED TETRAHYDROFURAN ANALOGS AS MODULATORS OF SODIUM CHANNELS” (VERTEX PHARMACEUTICALS INCORPORATED, priority 2021, published 2025)",
  "note": "pIC50: −log10 of the molar value. Some entries share one result that the patent states for a list of compounds. For at least one compound, name, drawing or mass did not settle the structure.",
  "data": [
    {"target": "human Nav 1.8 (Homo sapiens, UniProt Q9Y5Y9)", "test": "E-VIPR assay detecting and measuring Nav inhibition properties", "assay_type": "cell-based", "settings": "HEK cells expressing a truncated form of human Nav 1.8; compound numbers without \"*\" (not marked as run in the presence of human serum); read-out: measured IC50 value in the E-VIPR Assay", "text": "E-VIPR Assay Detecting and Measuring Nav Inhibition Properties\nSodium ion channels are voltage-dependent proteins that can be activated by inducing membrane voltage changes by applying electric fields. The electrical stimulation instrument and methods of use, referred to as E-VIPR, are described in International Publication No. WO 2002/008748 A3 and C.-J. Huang et al. Characterization of voltage-gated sodium channel blockers by electrical stimulation and fluorescence detection of membrane potential, 24 Nature Biotech. 439-46 (2006), both of which are incorporated by reference in their entirety. The instrument comprises a microtiter plate handler, an optical system for exciting the coumarin dye while simultaneously recording the coumarin and oxonol emissions, a waveform generator, a current- or voltage-controlled amplifier, and parallel electrode pairs that are inserted into assay plate wells. Under integrated computer control, this instrument passes user-programmed electrical stimulus protocols to cells within the wells of the microtiter plate.\n16-20 hours prior to running the assay on E-VIPR, HEK cells expressing a truncated form of human Nav 1.8 with full channel activity were seeded into microtiter 384-well plates, pre-coated with matrigel, at a density of 25,000 cells per well. 2.5-5% KIR2.1 Bacmam virus was added to the final cell suspension before seeding into cell plates. HEK cells were grown in Dulbecco's Modified Eagle's Medium (DMEM) supplemented with 10% FBS (Fetal Bovine Serum, qualified; Sigma #F4135), 1% NEAA (Non-Essential Amino Acids, Gibco #11140), 1% HEPES (Gibco #15630), 1% Pen-Strep (Penicillin-Streptomycin; Gibco #15140) and 5 μg/ml Blasticidin (Gibco #R^210-01). Cells were expanded in vented cap cell culture flasks, with 90-95% humidity and 5% CO2.\n100 mg/mL Pluronic F-127 (Sigma #P2443), in dry DMSO […]\n5 mM DiSBAC6(3), a voltage sensitive oxonol acceptor (CAS number 169211-44-3; 5-[3-(1,3-dihexylhexahydro-4,6-dioxo-2-thioxo-5-pyrimidinyl)-2-propen-1-ylidene]-1,3-dihexyldihydro-2-thioxo-4,6 (1H,5H)-pyrimidinedione), in dry DMSO. The preparation of DiSBAC6(3) is analogous to that of DiSBAC4(3) as described in Voltage Sensing by Fluorescence Resonance Energy Transfer in Single Cells, Gonzalez, J. E. and Tsien, R. Y. (1995) Biophys. […]\n5 mM CC2-DMPE, a commercially available membrane-bound coumarin phospholipid FRET donor (ThermoFisher Scientific catalog number K1017, CAS number 393782-57-5; tetradecanoic acid, 1,1′-[(1R)-1-[8-(6-chloro-7-hydroxy-2-oxo-2H-1-benzopyran-3-yl)-3-hydroxy-3-oxido-8-oxo-2,4-dioxa-7-aza-3-phosphaoct-1-yl]-1,2-ethanediyl] ester) was prepared in dry DMSO. See also, Improved indicators of cell membrane potential that use fluorescence resonance energy transfer, Gonzalez, J. E. and Tsien, R. Y. (1997) Chem. Biol. 4, 269-277. […]", "values": [
      {"smiles": "COCCOc1c([C@H]2[C@H](C(=O)Nc3ccnc(C(N)=O)c3)O[C@@](C)(C(F)(F)F)[C@H]2C)ccc(F)c1F", "note": "(stereo in doubt) [Compound 2, rel-4-((2R,3S,4S,5R)-3-(3,4-difluoro-2-(2-methoxyethoxy)phenyl)-4,5-dimethyl-5-(trifluoromethyl)tetrahydrofuran-2-carboxamido) picolinamide]", "pIC50": "> 8.00"},
      {"smiles": "C[C@@]1(C(F)(F)F)C[C@H](c2ccc(OC(F)(F)F)cc2Cl)[C@@H](C(=O)Nc2ccnc(C(N)=O)c2)O1", "note": "(stereo in doubt) [Compound 150, rel-4-((2S,3R,5S)-3-(2-chloro-4-(trifluoromethoxy)phenyl)-5-methyl-5-(trifluoromethyl)tetrahydrofuran-2-carboxamido) picolinamide]", "pIC50": "≤ 6.00"},
      {"smiles": "C[C@H]1[C@@H](c2ccc(F)c(F)c2OCCN2CC(F)C2)[C@H](C(=O)Nc2ccnc(C(N)=O)c2)O[C@@]1(C)C(F)(F)F", "note": "[Compound 107, 4-((2R,3S,4S,5R)-3-(3,4-difluoro-2-(2-(3-fluoroazetidin-1-yl)ethoxy)phenyl)-4,5-dimethyl-5-(trifluoromethyl)tetrahydrofuran-2-carboxamido) picolinamide]", "pIC50": "> 8.00"},
      {"smiles": "COc1c([C@H]2[C@H](C(=O)Nc3ccnc(C(N)=O)c3)O[C@@](C)(C(F)(F)F)[C@H]2C)ccc(OC(F)F)c1F", "note": "[Compound 180, 4-((2R,3S,4S,5R)-3-(4-(difluoromethoxy)-3-fluoro-2-methoxyphenyl)-4,5-dimethyl-5-(trifluoromethyl)tetrahydrofuran-2-carboxamido) picolinamide]", "pIC50": "> 8.00"}
    ]}
  ]
}
